# Taken from: PubChem BioAssay AID504795 (Drosophila RNAi Screening Center, 2011)
# Assay: 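Fly genes whose loss alters neurite growth or neural cell form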 (primary screen)
# Cell system: primary Drosophila neurons and glia
# Knock-down reagent: long dsRNA against Drosophila genes, 250 ng dsRNA per well
# Timing: one week
# Detection: 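GFP-labelled neurons and glia imaged live by automated microscope one week after 250 ng dsRNA per well; morphology scored by eye as descriptive phenotype terms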
# This is not the whole library: the list holds selected reagents. 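Every listed dsRNA shows some phenotype; how reagents were selected for listing is not stated.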 A plus sign joins genes that one reagent is predicted to hit.
gene,amplicon,"phenotype seen, replicate 1"
TfIIFbeta (GeneID 41290),DRSC16884,abnormal cell clusters
TfIIFbeta (GeneID 41290),DRSC21447,axon bundles split apart
drd (GeneID 318102),DRSC21466,too many neurite branches
Dh44 (GeneID 41170),DRSC16409,axon bundles split apart
Cep290 (GeneID 38099),DRSC08359,abnormal cell clusters
CG8197 (GeneID 35912),DRSC07105,fewer cells
CG4957 (GeneID 34374),DRSC02793,beaded; swollen axons
CG14985 (GeneID 38470),DRSC08078,abnormal cell clusters
CG32507 (GeneID 318060),DRSC20421,cell fragments present
CG15212 (GeneID 50315),DRSC10212,abnormal cell clusters
HmgD (GeneID 37481),DRSC04619,axon bundles split apart
CG10543 (GeneID 37379),DRSC04081,axon bundles split apart
Bka (GeneID 46032),DRSC02757,too many neurite branches
Fam92 (GeneID 34654),DRSC02952,abnormal cell clusters
CG9674 (GeneID 39878),DRSC11089,reduced axon outgrowth
RpL7-like + CG34164,DRSC02836,too many neurite branches
RpL7-like + CG34164,DRSC02837,too many neurite branches
CG33203 (GeneID 43414),DRSC14877,axon bundles split apart
Ask1 (GeneID 42366),DRSC21697,fewer cells
RpL36 (GeneID 31009),DRSC18708,weaker green signal
CG31663 (GeneID 33363),DRSC00389,axon bundles split apart
CG9993 (GeneID 37358),DRSC04599,reduced axon outgrowth
CG4041 (GeneID 31422),DRSC18339,too many neurite branches
rush (GeneID 31105),DRSC18568,too many neurite branches
twin (GeneID 42880),DRSC21363,reduced axon outgrowth
CG34300 (GeneID 5740334),DRSC13977,axon bundles split apart
gudu (GeneID 34014),DRSC02820,cell fragments present
LysE (GeneID 38128),DRSC08675,too many neurite branches
beat-VII (GeneID 43213),DRSC14743,beaded; swollen axons
beat-VII (GeneID 43213),DRSC14744,reduced axon outgrowth
RpL11 (GeneID 37235),DRSC07537,beaded; swollen axons
fand (GeneID 36514),DRSC06967,beaded; swollen axons

10 neighbouring reagents from above, for reference:
gene,amplicon,"phenotype seen, replicate 1"
CG15212 (GeneID 50315),DRSC10212,abnormal cell clusters
HmgD (GeneID 37481),DRSC04619,axon bundles split apart
CG10543 (GeneID 37379),DRSC04081,axon bundles split apart
Bka (GeneID 46032),DRSC02757,too many neurite branches
Fam92 (GeneID 34654),DRSC02952,abnormal cell clusters
CG9674 (GeneID 39878),DRSC11089,reduced axon outgrowth
RpL7-like + CG34164,DRSC02836,too many neurite branches
RpL7-like + CG34164,DRSC02837,too many neurite branches
CG33203 (GeneID 43414),DRSC14877,axon bundles split apart
Ask1 (GeneID 42366),DRSC21697,fewer cells

Further records:
gene,amplicon,"phenotype seen, replicate 1"
CG8187 (GeneID 36720),DRSC07099,too many neurite branches
MtnC (GeneID 42416),DRSC22879,reduced axon outgrowth
Parp1 (GeneID 3355109),DRSC07725,sheet-like cell extensions
Osi2 (GeneID 40756),DRSC12174,axon bundles split apart
Jhbp14 (GeneID 34728),DRSC01988,axon bundles split apart
kappaB-Ras + CG30503,DRSC07636,abnormal cell clusters
vig (GeneID 34885),DRSC03630,axon bundles split apart
CG10163 (GeneID 38728),DRSC09710,beaded; swollen axons
CG14147 (GeneID 39227),DRSC10149,reduced axon outgrowth
ghi (GeneID 317833),DRSC08985,sheet-like cell extensions
CG8750 (GeneID 50285),DRSC11037,axon bundles split apart
Icmt (GeneID 39478),DRSC09834,too many neurite branches
CG9222 (GeneID 33867),DRSC03158,too many neurite branches
CG17122 (GeneID 40226),DRSC10245,abnormal cell clusters
brp (GeneID 35977),DRSC06246,fewer cells
brp (GeneID 35977),DRSC06801,fewer cells
CG12902 (GeneID 36092),DRSC06217,axon bundles split apart
Ir51b (GeneID 246442),DRSC05540,axon bundles split apart
CG15237 (GeneID 35591),DRSC04971,too many neurite branches
CG14180 (retired record) (GeneID 39101),DRSC10179,axon bundles split apart
epsilonCOP (GeneID 33908),DRSC02003,too many neurite branches
CG11149 (GeneID 33800),DRSC02130,cell fragments present
CG32806 (GeneID 318220),DRSC21699,axon bundles split apart
CG13895 (GeneID 38087),DRSC08365,abnormal cell clusters
spaw (GeneID 246568),DRSC06824,abnormal cell clusters
CG5050 (GeneID 35048),DRSC02807,too many neurite branches
Scr (GeneID 40833),DRSC12604,sheet-like cell extensions
Sgs3 (GeneID 39288),DRSC11280,too many neurite branches
Rdh (GeneID 2769007),DRSC08063,sheet-like cell extensions
zip (GeneID 38001),DRSC04725,too many neurite branches
Tip60 (GeneID 31362),DRSC18661,reduced axon outgrowth
sphinx2 (GeneID 38833),DRSC22188,beaded; swollen axons
CG32073 (GeneID 326191),DRSC09087,abnormal cell clusters
CG32073 (GeneID 326191),DRSC09894,too many neurite branches
Mur29B (GeneID 319014),DRSC02376,beaded; swollen axons
Marc (GeneID 36014),DRSC06614,axon bundles split apart
Cpr64Ac (GeneID 38510),DRSC08462,axon bundles split apart
Grip (GeneID 50391),DRSC17940,axon bundles split apart
Grip (GeneID 50391),DRSC18395,axon bundles split apart
Cln3 (GeneID 39981),DRSC10520,sheet-like cell extensions
san (GeneID 44724),DRSC07695,reduced axon outgrowth
hop (GeneID 32080),DRSC20340,sheet-like cell extensions
